Values of other authors in article PMC6030940 (International Journal of Nanomedicine, 2018).

Tested on: Pgp mRNA in T84 cells
Settings: 10 µM, 72 h; cited from earlier work

CC(C)c1c(C(=O)Nc2ccccc2)c(-c2ccccc2)c(-c2ccc(F)cc2)n1CC[C@@H](O)C[C@@H](O)CC(=O)O [atorvastatin]
increase of mRNA levels of Pgp: 4.1 fold
